Assay results published in PubChem BioAssay AID190 (DTP/NCI, 2004).
The list shows only some results of the screen, not a fair sample: it gathers tests that were run many times, whatever their T/C, doses with no T/C, and many T/C values between a quarter and a half above the control. Other doses and runs of a compound stand elsewhere. T/C gives the treated animals as a percentage of the vehicle group. Some doses have a count of surviving animals in place of a T/C: the source holds a T/C of zero for them, seemingly a mark for toxic or unscored doses. Some survivor counts are full or nearly so, which does not show that the dose was tolerated: survival well below the control is almost never listed, so the zero probably covers shortened survival too. Survivors were counted at the toxicity check, usually on the fifth day, unless a day is given; later deaths do not show. Schedule codes are those of the source, taken here to give the interval after Q, in days (D) or hours (H), and the number of doses after X. Some entries were tested several times; their values stand side by side, smallest first. Brackets with × stand for listed records that agree. For survival time, this PubChem deposit counts one and a half times the control or more as active, and values a quarter to a half above the control carry no call in these data; other NCI protocols may use other cut-offs. Some T/C values are followed by the survivors on the day toxicity was checked, most often the fifth; without a count, all were alive then.

System: AKR/Lw mice, AKR lymphoma ip, median survival T/C
Assay: NCI In Vivo Anticancer Drug Screen. Data for tumor model Lymphoma AKR (Transplanted) (intraperitoneal) in AKR/Lw mice
Settings: T/C endpoint: median survival time, higher T/C = longer survival
Experimental: The antitumor activity of compounds was measured in mice bearing transplantable tumors. Survival or tumor size were measured and the results are expressed as the measurement made in the treated group (T) divided by the measurement made in the vehicle treated control group (C). The tumor model used in this assay is Lymphoma AKR (Transplanted) (intraperitoneal) in AKR/Lw mice

[1] = dose: 12.5 mg/kg/injection, schedule: Q01DX009 (ip), vehicle: saline
[2] = dose: 50.0 mg/kg/injection, schedule: Q01DX009 (ip), vehicle: saline

O=P1(N(CCCl)CCCl)NCCCO1 (configuration not stated) was tested, and the T/C (dose: 3.5 mg/kg/injection, schedule: Q01DX015 (ip), vehicle: saline) was 144 % of control, the T/C (dose: 4.0 mg/kg/injection, schedule: Q01DX015 (ip), vehicle: saline) was 141 % of control and the T/C (dose: 6.2 mg/kg/injection, schedule: Q01DX009 (ip), vehicle: saline) was 111, 113, 126, 141 % of control [9 of 10 alive]. For the same compound, the T/C (dose: 11.0 mg/kg/injection, schedule: Q01DX015 (ip), vehicle: saline) was 138 % of control, the T/C (dose: 12.0 mg/kg/injection, schedule: Q01DX009 (ip), vehicle: saline) was 125 % of control [9 of 10 alive] and the T/C [1] was 117, 123, 147, 200 % of control. For the same compound, the survivor count [1] was 8 of 10, the T/C (dose: 12.5 mg/kg/injection, schedule: Q04DX003 (ip), vehicle: saline) was 125 % of control and the T/C (dose: 12.5 mg/kg/injection, schedule: Q07DX005 (ip), vehicle: saline, evaluated on day 5) was 135 and 136 % of control. For the same compound, the T/C (dose: 12.5 mg/kg/injection, schedule: Q07DX005 (ip), vehicle: saline, evaluated on day 60) was 135 and 136 % of control, the T/C (dose: 12.5 mg/kg/injection, schedule: Q14DX004 (ip), vehicle: saline) was 146 % of control and the T/C (dose: 16.0 mg/kg/injection, schedule: Q01DX015 (ip), vehicle: saline) was 136 and 144 % of control [9 of 10 alive]. For the same compound, the T/C (dose: 16.0 mg/kg/injection, schedule: Q03HX032 (ip), vehicle: saline, evaluated on day 5) was 125 % of control, the T/C (dose: 16.0 mg/kg/injection, schedule: Q03HX032 (ip), vehicle: saline, evaluated on day 60) was 125 % of control and the T/C (dose: 25.0 mg/kg/injection, schedule: Q01DX001 (ip), vehicle: saline, evaluated on day 5) was 117 % of control. The T/C (dose: 25.0 mg/kg/injection, schedule: Q01DX001 (ip), vehicle: saline, evaluated on day 13) was 301 % of control, the T/C (dose: 25.0 mg/kg/injection, schedule: Q01DX001 (ip), vehicle: saline, evaluated on day 60) was 95, 104, 116, 117, 126 % of control and the T/C (dose: 25.0 mg/kg/injection, schedule: Q01DX009 (ip), vehicle: saline, evaluated on day 45) was 104 % of control. The T/C (dose: 25.0 mg/kg/injection, schedule: Q01DX009 (ip), vehicle: saline, evaluated on day 60) was 107, 115, 128, 136 [8 of 10 alive], 147, 155, 156, 196, 235 % of control, the survivor count (dose: 25.0 mg/kg/injection, schedule: Q01DX009 (ip), vehicle: saline) was 9 of 10 and 10 of 10 and the T/C (dose: 25.0 mg/kg/injection, schedule: Q04DX003 (ip), vehicle: saline) was 135 [8 of 10 alive] and 141 % of control. The T/C (dose: 25.0 mg/kg/injection, schedule: Q07DX003 (ip), vehicle: saline) was 126 and 142 % of control, the T/C (dose: 25.0 mg/kg/injection, schedule: Q07DX005 (ip), vehicle: saline, evaluated on day 5) was 133, 152, 177 % of control and the T/C (dose: 25.0 mg/kg/injection, schedule: Q07DX005 (ip), vehicle: saline, evaluated on day 60) was 133, 152, 177 % of control. For the same compound, the survivor count (dose: 35.0 mg/kg/injection, schedule: Q01DX009 (ip), vehicle: saline) was 10 of 10, the T/C (dose: 37.5 mg/kg/injection, schedule: Q01DX001 (ip), vehicle: water) was 130 % of control and the survivor count (dose: 48.0 mg/kg/injection, schedule: Q01DX015 (ip), vehicle: saline) was 10 of 10. The T/C (dose: 50.0 mg/kg/injection, schedule: Q01DX001 (ip), vehicle: saline with Tween-80) was 127 % of control, the T/C (dose: 50.0 mg/kg/injection, schedule: Q01DX001 (ip), vehicle: saline, evaluated on day 5) was 127 and 186 % of control and the T/C (dose: 50.0 mg/kg/injection, schedule: Q01DX001 (ip), vehicle: saline, evaluated on day 11) was 138 % of control. The T/C (dose: 50.0 mg/kg/injection, schedule: Q01DX001 (ip), vehicle: saline, evaluated on day 13) was 301 % of control, the T/C (dose: 50.0 mg/kg/injection, schedule: Q01DX001 (ip), vehicle: saline, evaluated on day 45) was 123, 140, 142 [9 of 10 alive], 150, 166 % of control and the T/C (dose: 50.0 mg/kg/injection, schedule: Q01DX001 (ip), vehicle: saline, evaluated on day 60) was 100, 111 [9 of 10 alive], 112 [8 of 10 alive], 117, 118, 121, 127 (2×), 130, 131 (2×), 132, 133, 135, 136, 137, 141, 152, 161, 177, 186 % of control. The T/C [2] was 125, 138, 144, 197 % of control, the survivor count [2] was 9 of 10 and 10 of 10 (2×) and the T/C (dose: 50.0 mg/kg/injection, schedule: Q04DX003 (ip), vehicle: saline, evaluated on day 45) was 180 % of control. For the same compound, the T/C (dose: 50.0 mg/kg/injection, schedule: Q04DX003 (ip), vehicle: saline, evaluated on day 60) was 101, 144 [9 of 10 alive], 160, 169 % of control, the survivor count (dose: 50.0 mg/kg/injection, schedule: Q04DX003 (ip), vehicle: saline) was 10 of 10 and the T/C (dose: 50.0 mg/kg/injection, schedule: Q07DX003 (ip), vehicle: saline) was 115, 146, 155, 163, 184, 253 % of control. For the same compound, the T/C (dose: 50.0 mg/kg/injection, schedule: Q07DX005 (ip), vehicle: saline, evaluated on day 5) was 160, 181, 196 % of control, the T/C (dose: 50.0 mg/kg/injection, schedule: Q07DX005 (ip), vehicle: saline, evaluated on day 60) was 160, 181, 196 % of control and the T/C (dose: 50.0 mg/kg/injection, schedule: Q10DX004 (ip), vehicle: saline, evaluated on day 5) was 143 % of control. The T/C (dose: 50.0 mg/kg/injection, schedule: Q10DX004 (ip), vehicle: saline, evaluated on day 60) was 143 % of control, the T/C (dose: 62.5 mg/kg/injection, schedule: Q04DX003 (ip), vehicle: saline, evaluated on day 45) was 102, 203, 225 % of control and the T/C (dose: 62.5 mg/kg/injection, schedule: Q04DX003 (ip), vehicle: saline, evaluated on day 60) was 186 % of control. For the same compound, the T/C (dose: 67.0 mg/kg/injection, schedule: Q09DX002 (ip), vehicle: saline) was 125 % of control and the T/C (dose: 75.0 mg/kg/injection, schedule: Q01DX001 (ip), vehicle: water) was 140 % of control.
